# In the supplement of paper PMC8728848:
# This is one part of the list.
# B1: AT3G44510(29) (Arabidopsis thaliana), F4J341 (protein)
# chain: MEEHLQGRIKLHDGRYLAYKERGVPKDDAKFTIVLVHGFGSSKDMNFNVSQELVNEIGIYFVLYDRAGYGESDPNPKRSLKSEAYDVQELADGLEIGSRFYLIGISMGSYTVWSCLKHIPQRLAGVAMVAPVVNFRWPSIPKSLMPKDYRREVAKWSVWIANYFPGLLQWLVTQNMFSTTSMLEKNPVYFNDQDIEVLKHIKGFPMLTKEKLRERGVFGTLRSDFLVAFGDWDFDPADLPDPSLSGPEKGSSSVHIWQGYEDKVMPFQLQRCLCRKLPWIRYHEVPKGGHLIVHYDGICDAILKSLLLGEDLPMYKPKAVITEPA
# Experiments:
# Assay in all cases: glycan array binding signal (z-score within array); higher = stronger binding
# Details in all cases: glycan notation: IUPAC condensed, linker removed
# [1] = biological target: Gal(a1-3)GalNAc
# In short: (§1)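 From the Consortium for Functional Glycomics database, 3228 arrays were curated, keeping only those whose protein sequence was available. Binding is given as a within-array Z-score averaged across arrays sharing a protein sequence and across linkers. Negative Z-scores can be read as non-binding.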
# [2] = biological target: Gal(a1-3)[Gal(a1-4)]Gal(b1-4)GlcNAc
# In short: as §1
# [3] = biological target: Gal(a1-4)Gal(b1-3)GlcNAc(b1-2)Man(a1-3)[Gal(a1-4)Gal(b1-3)GlcNAc(b1-2)Man(a1-6)]Man(b1-4)GlcNAc(b1-4)GlcNAc
# In short: as §1
# [4] = biological target: Gal(a1-4)Gal(b1-4)Glc
# In short: as §1
# [5] = biological target: Gal(a1-4)Gal(b1-4)GlcNAc
# In short: as §1
# [6] = biological target: Gal(a1-4)Gal(b1-4)GlcNAc(b1-2)Man(a1-3)[Gal(a1-4)Gal(b1-4)GlcNAc(b1-2)Man(a1-6)]Man(b1-4)GlcNAc(b1-4)GlcNAc
# In short: as §1
# [7] = biological target: Gal(a1-4)Gal(b1-4)GlcNAc(b1-3)Gal(b1-4)Glc
# In short: as §1
# [8] = biological target: Gal(a1-4)GlcNAc
# In short: as §1
# [9] = biological target: Gal(a1-6)Glc
# In short: as §1
# [10] = biological target: Gal(b1-2)Gal
# In short: as §1
# [11] = biological target: Gal(b1-3)Gal
# In short: as §1
# [12] = biological target: Gal(b1-3)Gal(b1-4)GlcNAc
# In short: as §1
# [13] = biological target: Gal(b1-3)GalNAc
# In short: as §1
# [14] = biological target: Gal(b1-3)GalNAc(a1-3)[Fuc(a1-2)]Gal(b1-4)Glc
# In short: as §1
# [15] = biological target: Gal(b1-3)GalNAc(a1-3)[Fuc(a1-2)]Gal(b1-4)GlcNAc
# In short: as §1
# [16] = biological target: Gal(b1-3)GalNAc(b1-3)Gal
# In short: as §1
# [17] = biological target: Gal(b1-3)GalNAc(b1-3)Gal(a1-4)Gal(b1-4)Glc
# In short: as §1
# [18] = biological target: Gal(b1-3)GalNAc(b1-4)Gal(b1-4)Glc
# In short: as §1
# [19] = biological target: Gal(b1-3)GalNAc(b1-4)[Neu5Ac(a2-3)]Gal(b1-4)Glc
# In short: as §1
# [20] = biological target: Gal(b1-3)GlcNAc
# In short: as §1
# [21] = biological target: Gal(b1-3)GlcNAc(a1-3)Gal(b1-4)GlcNAc
# In short: as §1
# [22] = biological target: Gal(b1-3)GlcNAc(a1-6)Gal(b1-4)GlcNAc
# In short: as §1
# [23] = biological target: Gal(b1-3)GlcNAc(b1-2)Man
# In short: as §1
# [24] = biological target: Gal(b1-3)GlcNAc(b1-2)Man(a1-3)[Gal(b1-3)GlcNAc(b1-2)Man(a1-6)]Man(b1-4)GlcNAc(b1-4)GlcNAc
# In short: as §1
# [25] = biological target: Gal(b1-3)GlcNAc(b1-2)Man(a1-3)[Gal(b1-3)GlcNAc(b1-2)Man(a1-6)]Man(b1-4)GlcNAc(b1-4)[Fuc(a1-6)]GlcNAc
# In short: as §1
# [26] = biological target: Gal(b1-3)GlcNAc(b1-2)Man(a1-3)[GlcNAc(b1-4)][Gal(b1-3)GlcNAc(b1-2)Man(a1-6)]Man(b1-4)GlcNAc(b1-4)GlcNAc
# In short: as §1
# [27] = biological target: Gal(b1-3)GlcNAc(b1-2)[Gal(b1-3)GlcNAc(b1-6)]Man(a1-6)[Gal(b1-3)GlcNAc(b1-2)Man(a1-3)]Man(b1-4)GlcNAc(b1-4)GlcNAc
# In short: as §1
# [28] = biological target: Gal(b1-3)GlcNAc(b1-3)Gal(b1-3)GlcNAc
# In short: as §1
# [29] = biological target: Gal(b1-3)GlcNAc(b1-3)Gal(b1-4)Glc
# In short: as §1
# [30] = biological target: Gal(b1-3)GlcNAc(b1-3)Gal(b1-4)GlcNAc
# In short: as §1
# [31] = biological target: Gal(b1-3)GlcNAc(b1-3)Gal(b1-4)GlcNAc(b1-2)Man(a1-3)[Gal(b1-3)GlcNAc(b1-3)Gal(b1-4)GlcNAc(b1-2)Man(a1-6)]Man(b1-4)GlcNAc(b1-4)GlcNAc
# In short: as §1
# [32] = biological target: Gal(b1-3)GlcNAc(b1-3)Gal(b1-4)GlcNAc(b1-2)[Gal(b1-3)GlcNAc(b1-3)Gal(b1-4)GlcNAc(b1-6)]Man(a1-6)[Gal(b1-3)GlcNAc(b1-3)Gal(b1-4)GlcNAc(b1-2)Man(a1-3)]Man(b1-4)GlcNAc(b1-4)[Fuc(a1-6)]GlcNAc
# In short: as §1
# [33] = biological target: Gal(b1-3)GlcNAc(b1-3)Gal(b1-4)GlcNAc(b1-3)Gal(b1-4)GlcNAc(b1-2)[Gal(b1-3)GlcNAc(b1-3)Gal(b1-4)GlcNAc(b1-3)Gal(b1-4)GlcNAc(b1-6)]Man(a1-6)[Gal(b1-3)GlcNAc(b1-3)Gal(b1-4)GlcNAc(b1-3)Gal(b1-4)GlcNAc(b1-2)Man(a1-3)]Man(b1-4)GlcNAc(b1-4)[Fuc(a1-6)]GlcNAc
# In short: as §1
# [34] = biological target: Gal(b1-3)GlcNAc(b1-3)Gal(b1-4)GlcNAc(b1-6)[Gal(b1-3)GlcNAc(b1-3)]Gal(b1-4)Glc
# In short: as §1
# [35] = biological target: Gal(b1-3)GlcNAc(b1-3)Gal(b1-4)[Fuc(a1-3)]GlcNAc
# In short: as §1
# [36] = biological target: Gal(b1-3)GlcNAc(b1-3)Gal(b1-4)[Fuc(a1-3)]GlcNAc(b1-6)[Gal(b1-3)GlcNAc(b1-3)]Gal(b1-4)Glc
# In short: as §1
# [37] = biological target: Gal(b1-3)GlcNAc(b1-3)GalNAc
# In short: as §1
# [38] = biological target: Gal(b1-3)GlcNAc(b1-6)Gal(b1-4)GlcNAc
# In short: as §1
binder,measurement,setting,value
B1,glycan array binding signal (z-score),[1],2.52
same,glycan array binding signal (z-score),[2],7.13
same,glycan array binding signal (z-score),[3],-0.494
same,glycan array binding signal (z-score),[4],3.6
same,glycan array binding signal (z-score),[5],0.224
same,glycan array binding signal (z-score),[6],0.7
same,glycan array binding signal (z-score),[7],-0.481
same,glycan array binding signal (z-score),[8],-0.197
same,glycan array binding signal (z-score),[9],-0.803
same,glycan array binding signal (z-score),[10],-0.185
same,glycan array binding signal (z-score),[11],-0.091
same,glycan array binding signal (z-score),[12],-0.105
same,glycan array binding signal (z-score),[13],-0.263
same,glycan array binding signal (z-score),[14],-0.064
same,glycan array binding signal (z-score),[15],-0.44
same,glycan array binding signal (z-score),[16],-0.725
same,glycan array binding signal (z-score),[17],-0.499
same,glycan array binding signal (z-score),[18],1.73
same,glycan array binding signal (z-score),[19],-0.184
same,glycan array binding signal (z-score),[20],-0.484
same,glycan array binding signal (z-score),[21],0.445
same,glycan array binding signal (z-score),[22],-0.312
same,glycan array binding signal (z-score),[23],0.081
same,glycan array binding signal (z-score),[24],-0.283
same,glycan array binding signal (z-score),[25],-0.424
same,glycan array binding signal (z-score),[26],-0.481
same,glycan array binding signal (z-score),[27],-0.707
same,glycan array binding signal (z-score),[28],-0.449
same,glycan array binding signal (z-score),[29],1.33
same,glycan array binding signal (z-score),[30],-0.627
same,glycan array binding signal (z-score),[31],0.612
same,glycan array binding signal (z-score),[32],0.952
same,glycan array binding signal (z-score),[33],0.771
same,glycan array binding signal (z-score),[34],-0.391
same,glycan array binding signal (z-score),[35],-0.095
same,glycan array binding signal (z-score),[36],-0.556
same,glycan array binding signal (z-score),[37],-0.212
same,glycan array binding signal (z-score),[38],0.186

# 2 neighbouring entries already listed, quoted:
binder,measurement,setting,value
B1,glycan array binding signal (z-score),[5],0.224
same,glycan array binding signal (z-score),[6],0.7
